Results published in paper PMC9927233.
These are yes or no findings as the source states them, for the method shown. Binding seen in cells or lysates may run through a third protein. Some binding calls cover weakened binding; strength is not graded here.

The chains behind the UniProt entries cited, without tags or fusion partners.
UniProt O81445: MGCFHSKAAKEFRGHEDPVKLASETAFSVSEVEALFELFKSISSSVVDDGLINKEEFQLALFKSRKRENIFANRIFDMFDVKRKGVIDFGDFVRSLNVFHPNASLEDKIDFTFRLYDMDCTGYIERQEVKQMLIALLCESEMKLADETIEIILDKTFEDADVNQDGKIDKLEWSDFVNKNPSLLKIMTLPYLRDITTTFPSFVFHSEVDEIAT

Molecular target: SCFPN::CBL1 (UniProt O81445)
Test: split reporter; BiFC with split CFP (SCFPN/SCFPC) in N. benthamiana leaf epidermal cells, 35S promoter, confocal microscopy 3 to 5 days after infiltration

B1: CIPK24::SCFPC (protein, UniProt Q9LDI3 1-446)
chain: MTKKMRRVGKYEVGRTIGEGTFAKVKFARNTDTGDNVAIKIMAKSTILKNRMVDQIKREISIMKIVRHPNIVRLYEVLASPSKIYIVLEFVTGGELFDRIVHKGRLEESESRKYFQQLVDAVAHCHCKGVYHRDLKPENLLLDTNGNLKVSDFGLSALPQEGVELLRTTCGTPNYVAPEVLSGQGYDGSAADIWSCGVILFVILAGYLPFSETDLPGLYRKINAAEFSCPPWFSAEVKFLIHRILDPNPKTRIQIQGIKKDPWFRLNYVPIRAREEEEVNLDDIRAVFDGIEGSYVAENVERNDEGPLMMNAFEMITLSQGLNLSALFDRRQDFVKRQTRFVSRREPSEIIANIEAVANSMGFKSHTRNFKTRLEGLSSIKAGQLAVVIEIYEVAPSLFMVDVRKAAGETLEYHKFYKKLCSKLENIIWRATEGIPKSEILRTITF
- binding: binds
